Laboratory results: the supplement of paper PMC11348887
Where a name gives a salt, the structure may show the parent alone. ± gives the standard deviation of the averaged measurements. The list shows a part of the results. Most entries show no effect beyond the scatter of the controls.

system: hPSC-derived cortical neurons (WA09); assay: KCl-induced FOS+/EGR-1+ double-positive nuclei fraction z-score (KCl minus unstimulated); higher = stronger activity-induced IEG response; conditions: 5 µM; treatment: days 7-14 after plating, readout day 21

Compound	KCl-induced FOS+/EGR-1+ double-positive nuclei fraction z-score
CC[C@@H](C)Nc1cc(C(=O)N[C@H]2C[C@H]3CC[C@@H](C2)N3c2ccc(C(=O)C3CC3)cn2)c(C)cc1C(N)=O	7.67
CN[C@@H]1[C@@H](O[C@H]2O[C@H](CO)[C@@H](N)[C@H](O)[C@H]2O)OC2C[C@@H](N)[C@@H](O[C@H]3[C@H](O)[C@@H](O)[C@H](N)C[C@@H]3N)OC2[C@@H]1O (stereo not given in full) [Apramycin Sulfate]	-1.46
COc1cc2ncnc(Nc3cccc(Cl)c3F)c2cc1OC(=O)N1CCN(C)C[C@H]1C	0.375
Cc1ccc(C(=O)Nc2ccc(CN3CCN(C)CC3)c(C(F)(F)F)c2)cc1C#Cc1cnc2[nH]ncc2c1	-0.674
Cc1nc2n(c(=O)c1CCN1CCC(c3noc4cc(F)ccc34)CC1)CCCC2O (stereo not given) [Paliperidone]	2.05
C[n+]1ccccc1/C=N/O [Pralidoxime chloride]	-0.624
CN1CCN(C(=O)/C=C/c2ccc([N+](=O)[O-])o2)CC1	-1.69
Cc1nc2n(c(=O)c1CCN1CCC(c3noc4cc(F)ccc34)CC1)CCCC2 [Risperidone]	0.964
CC(C)(C)c1cnc(CSc2cnc(NC(=O)C3CCNCC3)s2)o1	-0.758
O=C1c2ccccc2C(=O)C1c1ccccc1 [Phenindione]	-0.39
COc1ccccc1OCC(O)CO (stereo not given) [Guaifenesin]	0.285
CCCCCC(=O)O[C@]1(C(C)=O)CC[C@H]2[C@@H]3CCC4=CC(=O)CC[C@]4(C)[C@H]3CC[C@@]21C [Hydroxyprogesterone caproate]	-0.11
COc1cc2c(cc1OC)[C@@H]1Cc3ccc(OC)c(OC)c3CN1CC2 [Rotundine]	-0.126
Cc1nc(NC(=O)N2CCC[C@H]2C(N)=O)sc1-c1ccnc(C(C)(C)C(F)(F)F)c1	-0.412
COc1cc2nc(N3CCN(C(=O)C4CCCO4)CC3)nc(N)c2cc1OC (stereo not given) [Terazosin HCl]	0.472 ± 0.054
O=C1c2c(O)cc(O)cc2O[C@H](c2cc(O)c(O)c(O)c2)[C@H]1O [Dihydromyricetin]	1.66
CN(C)CCCCC(=O)Nc1ccc(NC(=S)NC(=O)c2ccc(C(C)(C)C)cc2)cc1 [Tenovin-6]	-1.38
Cc1ccc2c(Cl)cc(Cl)c(O)c2n1 [Chlorquinaldol]	2.33

Compound	KCl-induced FOS+/EGR-1+ double-positive nuclei fraction z-score
O=C(O)CCc1nc2ccccc2[nH]1 [Procodazole]	1.1
N#CC1(c2ccc(NC(=O)c3cccnc3NCc3ccncc3)cc2)CCCC1 [Apatinib]	0.557
COc1cc(Nc2ncc(F)c(Nc3ccc4c(n3)NC(=O)C(C)(C)O4)n2)cc(OC)c1OC [R406 (free base)]	1.35
Nc1nc(=O)[nH]cc1F [Flucytosine]	2.14
O=C(C=Cc1ccccc1)NC(NC(=S)Nc1ccc(Cl)cc1)C(Cl)(Cl)Cl (stereo not given)	1.23
O=C(NO)c1cccc(C(=O)NCCc2ccccc2)c1	0.631
CCC(=O)OCC(=O)[C@@]1(OC(=O)CC)[C@@H](C)C[C@H]2[C@@H]3CCC4=CC(=O)C=C[C@]4(C)[C@@]3(Cl)[C@@H](O)C[C@@]21C [Beclomethasone dipropionate]	0.298
CO[C@H]1CC[C@H](N2C(=O)CNc3ncc(-c4ccc(C(C)(C)O)nc4)nc32)CC1	-0.75
O=C(O)c1cn(-c2ccc(F)cc2)c2cc(N3CCNCC3)c(F)cc2c1=O [Sarafloxacin HCl]	0.833
CN/C(=N\CCSCc1nc[nH]c1C)NC#N [Cimetidine]	0.979
CC1(C)[C@@H](O)CC[C@]2(C)[C@H]3C(=O)C=C4[C@@H]5C[C@@](C)(C(=O)O)CC[C@]5(C)CC[C@@]4(C)[C@]3(C)CC[C@@H]12 [Enoxolone]	-0.245
C[C@@H](c1ncncc1F)[C@](O)(Cn1cncn1)c1ccc(F)cc1F [Voriconazole]	0.0346
CC(=O)C1=C(O)C=C2Oc3c(C(C)=O)c(O)c(C)c(O)c3C2(C)C1=O (single isomer, unassigned; (+)) [(+)-Usniacin]	0.334
Nc1cccc(-c2cc3c(Oc4cccc(O)c4)ncnc3[nH]2)c1	1.67
CC(C)CN(C[C@@H](O)[C@H](Cc1ccccc1)NC(=O)O[C@H]1CCOC1)S(=O)(=O)c1ccc(N)cc1 [Amprenavir]	1.64
C#C[C@]1(O)CC[C@H]2[C@@H]3CCC4=CC(=O)CC[C@@H]4[C@H]3CC[C@@]21C [Norethindrone]	-0.605
C[C@@H]1C/C=C/C=C/C=C/C=C/[C@H](O[C@@H]2O[C@H](C)[C@@H](O)[C@H](N)[C@@H]2O)C[C@@H]2O[C@](O)(C[C@@H](O)C[C@H]3O[C@@H]3/C=C/C(=O)O1)C[C@H](O)[C@H]2C(=O)O [Natamycin]	0.818

Another view of some results above:

| Compound | KCl-induced FOS+/EGR-1+ double-positive nuclei fraction z-score |
| --- | --- |
| Cc1nc2n(c(=O)c1CCN1CCC(c3noc4cc(F)ccc34)CC1)CCCC2 [Risperidone] | 0.964 |
| CC(C)(C)c1cnc(CSc2cnc(NC(=O)C3CCNCC3)s2)o1 | -0.758 |
| O=C1c2ccccc2C(=O)C1c1ccccc1 [Phenindione] | -0.39 |
| COc1ccccc1OCC(O)CO (stereo not given) [Guaifenesin] | 0.285 |
| CCCCCC(=O)O[C@]1(C(C)=O)CC[C@H]2[C@@H]3CCC4=CC(=O)CC[C@]4(C)[C@H]3CC[C@@]21C [Hydroxyprogesterone caproate] | -0.11 |
| COc1cc2c(cc1OC)[C@@H]1Cc3ccc(OC)c(OC)c3CN1CC2 [Rotundine] | -0.126 |
